{
  "source": "patent US20260258333A1",
  "about": "“MULTI-ORGAN \"BODY ON A CHIP\" APPARATUS UTILIZING A COMMON MEDIA” (Wake Forest University Health Sciences, priority 2016, published 2026)",
  "test_system": "liver organoids (cytochrome p450 isoforms)",
  "settings": "primarily by CYP2C19 and CYP3A4",
  "data": [
    {"smiles": "CN1C(=O)CN=C(c2ccccc2)c2cc(Cl)ccc21", "note": "[diazepam]", "values": [
      {"measurement": "metabolites formed by liver organoids", "value": "metabolism of diazepam into temazepam, nordiazepam, and oxazepan"}
    ]}
  ]
}
